From patent US11453642B2, “Oxygenated amino- or ammonium-containing sulfonic acid, phosphonic acid and carboxylic acid derivatives and their medical use” (GRI BIO, INC., priority 2011, dated 2022)
For some assays here: For at least one compound, name, drawing or mass did not settle the structure. Some results were stated once for a whole list of compounds, not compound by compound.

How the values were obtained:
[1] = test system: collagen type II-induced arthritis (CIA); conditions: prophylactic regimen; 0.3 mg/kg intraperitoneally once daily
[2] = test system: allergic contact dermatitis response in mice; test: Allergic contact dermatitis (TDI) model in mice, mouse ear swelling test; format: in vivo; conditions: 100 mg/kg oral, administered 1 h or 4 h before challenge
Procedure: The anti-inflammatory and anti-allergic effects of compounds 1a and 1c were assessed in a mouse model of allergic contact dermatitis, a response driven primarily by T helper type 2 (Th2) cells. […] In this model, an allergic dermatitis response is obtained by sensitizing mice to TDI and subsequently challenging them with antigen by topical administration onto the ears. A quantitative assessment of anti-inflammatory and anti-allergic effects of topically or orally administered test compounds is possible by measuring the resulting ear swelling. The advantages of the allergic contact dermatitis model (Zöllner et al., Bioessays 26:693-6 (2004)) are reproducibility and reliability (>90% of BALB/c mice respond to sensitization), a short induction protocol, quantitative assessment by measuring ear thickness, atopic dermatitis-like skin lesions can be induced, and clinically relevant pharmaceuticals, such as corticosteroids, calcineurin-inhibitors and PDE4-inhibitors, are effective in this model.
Female BALB/c-mice were obtained from Charles River (Sulzfeld, Germany) at age 8 weeks. All animals were housed in groups of eight per cage at 22° C. with a 12 h light/dark-cycle, Water and a standard diet (Altromin, Lage/Lippe, Germany) were available ad libitum. […]
Mean and standard error of the mean (SEM) were calculated from individual ear edema values. […]

Row | Structure (SMILES) | clinical signs of arthritis [1] | reduction of ear swelling [2]
1 | C[C@@H]1C[C@H]2[C@@H]3CCC4=CC(=O)C=C[C@]4(C)[C@@]3(F)[C@@H](O)C[C@]2(C)[C@@]1(O)C(=O)CO [Dexamethasone, reference compound] | nearly completely suppressed | 
2 | CCCCCCCCCCCCN(C)CC(O)CS(=O)(=O)O (centres unmarked) [Compound 1c, 2-hydroxy-3-(N-methyldodecylammonio)propanesulfonate] |  | up to 73%
